Some of the results follow. Single values are uncertain, as repeats are few or missing.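 Cells were imaged in 1,536-well plates, and nuclei stained with an antibody against cleaved PARP were counted against all DNA-stained nuclei to give the apoptosis fraction. Screening doses were chosen to leave most cells alive, and resting and induced cleaved-PARP levels differ strongly between cell lines.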
Columns and labels:
Experiment in all cases: cleaved PARP positive nuclei fraction relative to DMSO control; melanoma cells; higher = more apoptosis
Settings in all cases: library dose: low library concentration; 72 h
[1] = system: CBRC034 (line from a melanoma biopsy)
[2] = system: COLO792
[3] = system: COLO800
[4] = system: COLO829
[5] = system: G361
[6] = system: IPC-298
[7] = system: IST-MEL1
[8] = system: LB2518-MEL
[9] = system: LOXIMVI
[10] = system: MZ2-MEL
[11] = system: MeWo
[12] = system: RPMI7951
[13] = system: RVH-421
[14] = system: SkMel28
[15] = system: SkMel30
[16] = system: SkMel5
[17] = system: UACC257
[18] = system: UACC62
[19] = system: MEL-HO
[20] = system: SkMel2

OCCn1cc(-c2cnc3nnn(Cc4ccc5ncccc5c4)c3n2)cn1 + N#Cc1c(O)c2c(-c3ccc(-c4ccccc4O)cc3)csc2[nH]c1=O [A769662] (first compound 1 µM, partner dose 2 µM)
cleaved PARP positive nuclei fraction [1]: 188%
cleaved PARP positive nuclei fraction [2]: 124%
cleaved PARP positive nuclei fraction [3]: 126%
cleaved PARP positive nuclei fraction [4]: 103%
cleaved PARP positive nuclei fraction [5]: 33%
cleaved PARP positive nuclei fraction [6]: 43.1%
cleaved PARP positive nuclei fraction [7]: 179%
cleaved PARP positive nuclei fraction [8]: 88%
cleaved PARP positive nuclei fraction [9]: 49.7%
cleaved PARP positive nuclei fraction [10]: 78.1%
cleaved PARP positive nuclei fraction [11]: 51.5%
cleaved PARP positive nuclei fraction [12]: 166%
cleaved PARP positive nuclei fraction [13]: 58.8%
cleaved PARP positive nuclei fraction [14]: 106%
cleaved PARP positive nuclei fraction [15]: 20%
cleaved PARP positive nuclei fraction [16]: 42.7%
cleaved PARP positive nuclei fraction [17]: 211%
cleaved PARP positive nuclei fraction [18]: 156%

Nc1cccc2c1CN(C1CCC(=O)NC1=O)C2=O (stereo not drawn) [lenalidomide] + COc1cc(N2CCC(N3CCN(C)CC3)CC2)ccc1Nc1ncc(Cl)c(Nc2ccccc2S(=O)(=O)C(C)C)n1 [NVP-TAE684] (first compound 1 µM, partner dose 0.08 µM)
cleaved PARP positive nuclei fraction [1]: 140%
cleaved PARP positive nuclei fraction [2]: 186%
cleaved PARP positive nuclei fraction [3]: 142%
cleaved PARP positive nuclei fraction [4]: 71.6%
cleaved PARP positive nuclei fraction [5]: 55.7%
cleaved PARP positive nuclei fraction [6]: 191%
cleaved PARP positive nuclei fraction [7]: 27.3%
cleaved PARP positive nuclei fraction [8]: 74.4%
cleaved PARP positive nuclei fraction [9]: 101%
cleaved PARP positive nuclei fraction [11]: 118%
cleaved PARP positive nuclei fraction [12]: 95.5%
cleaved PARP positive nuclei fraction [13]: 40.1%
cleaved PARP positive nuclei fraction [14]: 124%
cleaved PARP positive nuclei fraction [15]: 71.1%
cleaved PARP positive nuclei fraction [16]: 124%
cleaved PARP positive nuclei fraction [17]: 131%
cleaved PARP positive nuclei fraction [18]: 105%

Cc1cc(N2CCOCC2)cc2[nH]c(-c3c(NC[C@@H](O)c4cccc(Cl)c4)cc[nH]c3=O)nc12 + Oc1cc(-c2nc(-c3ccccc3)[nH]c2-c2ccncc2)ccc1Cl [L779450] (first compound 0.2 µM, partner dose 0.2 µM)
cleaved PARP positive nuclei fraction [1]: 111%
cleaved PARP positive nuclei fraction [2]: 164%
cleaved PARP positive nuclei fraction [3]: 208%
cleaved PARP positive nuclei fraction [4]: 82.4%
cleaved PARP positive nuclei fraction [5]: 182%
cleaved PARP positive nuclei fraction [6]: 93%
cleaved PARP positive nuclei fraction [7]: 28.5%
cleaved PARP positive nuclei fraction [9]: 57.5%
cleaved PARP positive nuclei fraction [11]: 148%
cleaved PARP positive nuclei fraction [12]: 88.9%
cleaved PARP positive nuclei fraction [13]: 97.7%
cleaved PARP positive nuclei fraction [14]: 101%
cleaved PARP positive nuclei fraction [15]: 49.2%
cleaved PARP positive nuclei fraction [16]: 35%
cleaved PARP positive nuclei fraction [17]: 44.8%
cleaved PARP positive nuclei fraction [18]: 270%

NC(=O)Nc1cc(-c2cccc(F)c2)sc1C(=O)N[C@H]1CCCNC1 + CCN(CC)CCCCNc1ncc2cc(-c3cc(OC)cc(OC)c3)c(NC(=O)NC(C)(C)C)nc2n1 [PD173074] (first compound 0.02 µM, partner dose 0.1 µM)
cleaved PARP positive nuclei fraction [1]: 127%
cleaved PARP positive nuclei fraction [2]: 84.6%
cleaved PARP positive nuclei fraction [3]: 173%
cleaved PARP positive nuclei fraction [4]: 95.8%
cleaved PARP positive nuclei fraction [5]: 61.8%
cleaved PARP positive nuclei fraction [6]: 104%
cleaved PARP positive nuclei fraction [7]: 49.5%
cleaved PARP positive nuclei fraction [8]: 62%
cleaved PARP positive nuclei fraction [9]: 29.4%
cleaved PARP positive nuclei fraction [11]: 194%
cleaved PARP positive nuclei fraction [12]: 103%
cleaved PARP positive nuclei fraction [13]: 70.5%
cleaved PARP positive nuclei fraction [14]: 49.5%
cleaved PARP positive nuclei fraction [15]: 42.2%
cleaved PARP positive nuclei fraction [16]: 141%
cleaved PARP positive nuclei fraction [17]: 47.7%
cleaved PARP positive nuclei fraction [18]: 314%

C=CCn1c(=O)c2cnc(Nc3ccc(N4CCN(C)CC4)cc3)nc2n1-c1cccc(C(C)(C)O)n1 + COc1ccc(-c2ccc3c(N4CCOCC4)nc(N4C[C@@H](C)O[C@@H](C)C4)nc3n2)cc1CO [KU0063794] (first compound 0.02 µM, partner dose 0.02 µM)
cleaved PARP positive nuclei fraction [1]: 47.5%
cleaved PARP positive nuclei fraction [2]: 142%
cleaved PARP positive nuclei fraction [3]: 62.8%
cleaved PARP positive nuclei fraction [4]: 172%
cleaved PARP positive nuclei fraction [5]: 105%
cleaved PARP positive nuclei fraction [6]: 187%
cleaved PARP positive nuclei fraction [7]: 160%
cleaved PARP positive nuclei fraction [8]: 79.8%
cleaved PARP positive nuclei fraction [9]: 72.6%
cleaved PARP positive nuclei fraction [10]: 69.5%
cleaved PARP positive nuclei fraction [11]: 112%
cleaved PARP positive nuclei fraction [12]: 81.8%
cleaved PARP positive nuclei fraction [13]: 156%
cleaved PARP positive nuclei fraction [14]: 145%
cleaved PARP positive nuclei fraction [15]: 37.9%
cleaved PARP positive nuclei fraction [16]: 74.9%
cleaved PARP positive nuclei fraction [17]: 112%
cleaved PARP positive nuclei fraction [18]: 42.9%

C=CCNC1=C2C[C@@H](C)C[C@H](OC)[C@H](O)[C@@H](C)/C=C(\C)[C@H](OC(N)=O)[C@@H](OC)/C=C\C=C(/C)C(=O)NC(=CC1=O)C2=O [Tanespimycin] + Cn1nnc2c(C(N)=O)ncn2c1=O [temozolomide] (first compound 0.002 µM, partner dose 2 µM)
cleaved PARP positive nuclei fraction [1]: 107%
cleaved PARP positive nuclei fraction [2]: 99.1%
cleaved PARP positive nuclei fraction [3]: 105%
cleaved PARP positive nuclei fraction [4]: 89.6%
cleaved PARP positive nuclei fraction [5]: 68.1%
cleaved PARP positive nuclei fraction [6]: 81.8%
cleaved PARP positive nuclei fraction [7]: 312%
cleaved PARP positive nuclei fraction [9]: 92.4%
cleaved PARP positive nuclei fraction [19]: 100%
cleaved PARP positive nuclei fraction [11]: 114%
cleaved PARP positive nuclei fraction [12]: 64.9%
cleaved PARP positive nuclei fraction [13]: 78.4%
cleaved PARP positive nuclei fraction [14]: 85.9%
cleaved PARP positive nuclei fraction [20]: 77.2%
cleaved PARP positive nuclei fraction [15]: 27.2%
cleaved PARP positive nuclei fraction [18]: 185%

OCCn1cc(-c2cnc3nnn(Cc4ccc5ncccc5c4)c3n2)cn1 + Oc1cc(-c2nc(-c3ccccc3)[nH]c2-c2ccncc2)ccc1Cl [L779450] (first compound 1 µM, partner dose 0.2 µM)
cleaved PARP positive nuclei fraction [1]: 111%
cleaved PARP positive nuclei fraction [2]: 182%
cleaved PARP positive nuclei fraction [3]: 88.4%
cleaved PARP positive nuclei fraction [4]: 103%
cleaved PARP positive nuclei fraction [5]: 127%
cleaved PARP positive nuclei fraction [6]: 48.2%
cleaved PARP positive nuclei fraction [7]: 56.6%
cleaved PARP positive nuclei fraction [8]: 146%
cleaved PARP positive nuclei fraction [9]: 17.7%
cleaved PARP positive nuclei fraction [10]: 81.9%
cleaved PARP positive nuclei fraction [11]: 99.8%
cleaved PARP positive nuclei fraction [12]: 41.8%
cleaved PARP positive nuclei fraction [13]: 86.3%
cleaved PARP positive nuclei fraction [14]: 66.6%
cleaved PARP positive nuclei fraction [15]: 160%
cleaved PARP positive nuclei fraction [16]: 69%
cleaved PARP positive nuclei fraction [17]: 109%
cleaved PARP positive nuclei fraction [18]: 86.1%

C#Cc1cccc(Nc2ncnc3cc(OCCOC)c(OCCOC)cc23)c1 [erlotinib] + COc1ccc(Cl)c(Nc2nc3ccccc3nc2NS(=O)(=O)c2cccc(NC(=O)C(C)(C)N)c2)c1 [XL147] (first compound 0.8 µM, partner dose 0.8 µM)
cleaved PARP positive nuclei fraction [1]: 74.6%
cleaved PARP positive nuclei fraction [2]: 105%
cleaved PARP positive nuclei fraction [3]: 116%
cleaved PARP positive nuclei fraction [4]: 110%
cleaved PARP positive nuclei fraction [5]: 219%
cleaved PARP positive nuclei fraction [6]: 100%
cleaved PARP positive nuclei fraction [7]: 111%
cleaved PARP positive nuclei fraction [9]: 153%
cleaved PARP positive nuclei fraction [19]: 67.4%
cleaved PARP positive nuclei fraction [11]: 202%
cleaved PARP positive nuclei fraction [12]: 154%
cleaved PARP positive nuclei fraction [13]: 68.2%
cleaved PARP positive nuclei fraction [14]: 91.7%
cleaved PARP positive nuclei fraction [15]: 77.6%
cleaved PARP positive nuclei fraction [18]: 38.9%

CC(C)(C)c1cnc(CSc2cnc(NC(=O)C3CCNCC3)s2)o1 + O=c1cc(-c2cccc3c2Sc2ccccc2S3)oc(N2CCOCC2)c1 [KU55933] (first compound 0.01 µM, partner dose 1 µM)
cleaved PARP positive nuclei fraction [1]: 104%
cleaved PARP positive nuclei fraction [2]: 175%
cleaved PARP positive nuclei fraction [3]: 68.4%
cleaved PARP positive nuclei fraction [4]: 107%
cleaved PARP positive nuclei fraction [5]: 33.7%
cleaved PARP positive nuclei fraction [6]: 262%
cleaved PARP positive nuclei fraction [7]: 46.1%
cleaved PARP positive nuclei fraction [8]: 321%
cleaved PARP positive nuclei fraction [9]: 69.2%
cleaved PARP positive nuclei fraction [10]: 106%
cleaved PARP positive nuclei fraction [11]: 29.9%
cleaved PARP positive nuclei fraction [12]: 91.6%
cleaved PARP positive nuclei fraction [13]: 117%
cleaved PARP positive nuclei fraction [14]: 257%
cleaved PARP positive nuclei fraction [15]: 49.5%
cleaved PARP positive nuclei fraction [16]: 85.5%
cleaved PARP positive nuclei fraction [17]: 157%
cleaved PARP positive nuclei fraction [18]: 143%
